Assay results from the supplement of paper PMC3334620.
Over roughly 33,000 sequences, “E-score (-0.5 to 0.5)” has its median near -0.0014; the highest 2% begin near 0.25. This is one part of the list.

Target: T1, Cad1 (UniProt P24813)
T1 sequence: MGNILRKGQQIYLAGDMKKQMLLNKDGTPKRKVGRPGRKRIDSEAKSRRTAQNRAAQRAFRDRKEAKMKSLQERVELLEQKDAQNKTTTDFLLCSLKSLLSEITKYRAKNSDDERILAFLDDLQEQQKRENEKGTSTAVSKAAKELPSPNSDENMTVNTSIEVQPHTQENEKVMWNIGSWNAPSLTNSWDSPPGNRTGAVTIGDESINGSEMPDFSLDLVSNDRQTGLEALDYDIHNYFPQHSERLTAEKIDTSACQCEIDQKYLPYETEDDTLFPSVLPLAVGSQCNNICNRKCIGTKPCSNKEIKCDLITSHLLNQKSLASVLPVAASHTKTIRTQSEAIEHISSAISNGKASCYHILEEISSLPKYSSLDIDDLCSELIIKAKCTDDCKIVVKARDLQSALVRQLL
Assay: PBM E-score (8-mer binding enrichment) (E-score (-0.5 to 0.5)); higher = stronger / more preferred TF binding
Settings: protein concentration: 100 nM; construct: GST-full length
Outline: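 E-scores (a modified Wilcoxon-Mann-Whitney statistic) were assigned by the Universal PBM Analysis Suite to every ungapped eight-base word pooled with its reverse complement. The input came from universal all-10-mer Agilent arrays made double-stranded by primer extension and probed with GST-tagged yeast transcription factors at about 100-200 nM. Fluorescent anti-GST detected bound protein, and masliner normalised the scans.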

Sequence	PBM E-score
ATATACCC	-0.0212
ATGAGAAT	0.167
CGCGAGCG	-0.0498
CACGTCTA	-0.0255
GGTTATAC	0.0388
CGGTGCGC	0.00393
CACTGCTC	0.0649
GTATGAAC	0.124
AATCACTG	0.0205
GCACCCTA	-0.0728
AATCCGTA	0.0292
AATCTTTC	-0.0314
GACATACC	-0.0711
ACACTCGG	0.151
GCTGGGAC	-0.154
ATACACTG	0.0143
CCGGCCAA	-0.0872
GATTTAAC	-0.0415
CTACGGCA	-0.00328
GTCGTTCA	-0.044
ATTATCCA	0.141
GGTTTCTA	-0.0727
CTGTGTTA	0.11
CACGTTAC	-0.077
CTTACTTA	0.0867

Sequence	PBM E-score
GGTGTAAA	-0.0674
CTACACTA	-0.0764
ATTAATCG	0.234
ATCACTTA	-0.0137
GTGGGGCA	-0.0368
GGCTCTGA	-0.195
CTGTAGGC	0.0294
TCTCATCA	0.0542
AATTGTGG	-0.0823
ATAGTTAC	-0.0281
ACAGGTCG	-0.138
AACCAACC	0.0511
CAACAACA	0.269
GTAGTAGA	-0.0685
CGCCAGCA	-0.205
TATATGCA	0.12
TAGTCGAA	0.0593
AGTACGAA	0.22
ATGCCTCA	-0.0731
CGGAGCAG	-0.0854
CAGTGGAC	0.0787
GCTGGCGA	-0.039
ATTATAGC	-0.0558
ATGCCACC	-0.309
CGGCGAGA	0.158

Sequence	PBM E-score
CTACATAC	0.0451
ATGCGTAG	0.0673
ACGATACT	-0.131
CCTGCATC	0.13
AATGCCAG	-0.0919
CGTCGGAC	-0.0431
AAGCGACC	0.124
TACAGGGA	-0.196
GGAGGACA	-0.135
ATGCTTCA	-0.121
AATGGCAT	0.111
AATACTGA	0.0566
AACGACCA	0.0102
GGGGGCTA	-0.41
AGAACTGG	0.0468
GGACCAGA	-0.197
GAAACAAC	-0.104
ACTTTCTA	-0.028
CGAGCTGC	-0.0193
TAAGACCA	-0.0792
ACATACGG	0.109
CTCCACCA	-0.193
GGTCTAAA	0.0161
AAAAGGGC	-0.115
AGGTAGAA	-0.164

Random excerpt: 6 entries already listed
Sequence	PBM E-score
GAAACAAC	-0.104
ACATACGG	0.109
GGAGGACA	-0.135
CTACATAC	0.0451
AATGCCAG	-0.0919
AATACTGA	0.0566

(list continues)

Sequence	PBM E-score
GCACGGAA	0.00167
GCGCATCA	0.0478
CGAGTTGA	0.0754
AGCTGCTC	-0.0947
AAAGGTGC	-0.176
GGGACTAA	-0.131
CACGCAAA	0.0783
AATTTCCA	0.105
GGTAGGCA	-0.00857
CAGCTTAC	0.224
AAGTCCAA	0.0926
ATCGTACC	-0.18
AAACTCTG	-0.00764
CGGGCACC	-0.151
AAAAGTTC	0.138
ATTTTCTA	0.133
GGTACCAA	-0.0224
ATGACCGA	-0.118
CTACCCGA	0.0466
AGAGGCGG	-0.126
TAGTGAAA	-0.0548
CGTACTAG	0.0749
GGACCTTA	-0.121
CCCTAGGC	-0.079
CTGCAACC	-0.106

Sequence	PBM E-score
AACTGATA	0.0697
CATTTGAA	0.0921
CTCTCCGC	0.0395
CCCAGCCG	-0.0415
GTACTTTA	-0.131
CACTGTCC	0.143
GCCGAGCC	0.0157
ACACTCGA	0.0775
GTTAGTTA	0.155
AATAGATG	0.0261
CGTGCTGC	0.0297
AATTGATC	-0.0161
AGTGAGAT	-0.13
AGTCCCCG	-0.208
GCCCACTA	-0.0305
AGCCTATA	0.0222
GAAACACC	0.125
CCGCTGGC	-0.0612
CATAAGGG	-0.00535
AGAGCACT	-0.0353
CGGGTATA	0.0615
AGGGTCGG	-0.181
CGCAAGTC	-0.199
AGTGTATC	0.0261
CCCTTGCG	-0.169

Sequence	PBM E-score
ATGCGTAA	0.0508
TATACCCA	-0.174
TCGAAAGA	0.0238
CCCAATGA	-0.156
AAGGTGCT	0.00352
CTAAGCAC	0.294
GACTAGGC	-0.0746
ACGCGTAG	0.0376
CATCACGG	-0.0297
CTCCATCC	-0.231
AACAACCA	0.173
GGTATGGA	0.0414
AACTGACC	-0.0719
CGATGTAA	0.104
ATACAAGA	-0.0454
GGATCTAC	-0.169
AATGCGAC	0.0554
CACGGGAC	-0.0278
GCCCAAGC	0.00488
AAAACTTG	0.0743
GCAGCCGC	-0.0809
CTAAATTA	0.2
GGTCGCCA	-0.186
AGTAGCGC	0.193
GCTTGGAC	-0.0816

For convenience, some entries already given.
Sequence	PBM E-score
AGTAGCGC	0.193
GCTTGGAC	-0.0816

Carrying on.

Sequence	PBM E-score
TAGAATCA	-0.178
ATTAACCC	0.034
ACTAGTGA	-0.131
CCATCCTA	0.00667
CGGGCCAC	0.041
CCCATGTC	-0.219
CTCCCTTA	-0.221
TAGTAAGA	0.265
ATAATAAG	0.198
CTCGCCCC	-0.182
GTGTTGTA	0.063
CAACACCC	-0.0252
CGGCGGTC	-0.257
CCTCACTC	0.0114
AGGCTAAC	0.00141
GGACATAA	0.102
AGCACCCC	-0.144
AACAAGTC	-0.0382
AAGACATA	0.0477
CTCGGGGA	-0.0482
CTCCAGAA	-0.218
ACATCTAT	0.0992
